Data published in paper PMC12048567.
Results are given in words; binding and its absence hold for the method and conditions named. Binding seen in cells or lysates may run through a third protein. Some binding calls cover weakened binding; strength is not graded here.

Protein sequences, listed by entry. Tags and fused reporters are not part of them.
UniProt Q7XPM8: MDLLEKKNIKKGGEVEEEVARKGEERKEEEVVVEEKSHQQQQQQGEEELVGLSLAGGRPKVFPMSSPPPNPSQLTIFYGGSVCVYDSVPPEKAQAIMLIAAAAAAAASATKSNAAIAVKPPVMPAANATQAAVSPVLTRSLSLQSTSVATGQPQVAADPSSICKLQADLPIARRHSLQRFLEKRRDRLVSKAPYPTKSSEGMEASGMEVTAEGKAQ
UniProt Q336P5: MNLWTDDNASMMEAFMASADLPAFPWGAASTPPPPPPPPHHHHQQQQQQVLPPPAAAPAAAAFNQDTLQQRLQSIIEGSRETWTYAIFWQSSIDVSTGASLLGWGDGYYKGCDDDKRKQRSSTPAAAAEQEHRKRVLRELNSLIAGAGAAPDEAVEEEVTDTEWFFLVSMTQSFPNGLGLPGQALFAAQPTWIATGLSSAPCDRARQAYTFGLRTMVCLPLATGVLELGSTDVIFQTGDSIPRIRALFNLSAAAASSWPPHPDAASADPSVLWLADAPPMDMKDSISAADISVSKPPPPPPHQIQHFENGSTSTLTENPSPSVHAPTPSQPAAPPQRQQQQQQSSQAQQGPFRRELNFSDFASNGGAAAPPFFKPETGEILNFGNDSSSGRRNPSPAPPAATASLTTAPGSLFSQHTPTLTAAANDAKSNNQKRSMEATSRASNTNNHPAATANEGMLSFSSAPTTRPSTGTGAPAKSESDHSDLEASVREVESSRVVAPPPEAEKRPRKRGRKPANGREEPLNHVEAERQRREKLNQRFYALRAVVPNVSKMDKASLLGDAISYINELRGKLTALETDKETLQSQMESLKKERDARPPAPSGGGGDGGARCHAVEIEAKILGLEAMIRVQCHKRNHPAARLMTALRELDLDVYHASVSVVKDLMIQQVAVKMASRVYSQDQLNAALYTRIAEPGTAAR

Molecular target: JAZ1-His (rice) (UniProt Q7XPM8)
Assay: pull-down; competitive binding, called His-tag pull-down in the legend; GATA19-V5 at ratios of 1:50:500 incubated 1 h with JAZ1-His, then MYC2-Flag added for another hour; Western blot

With MYC2-Flag (from UniProt Q336P5 1-699) the binding was “binds”.
